No constants are given. Whether binding was seen depends on the method and setting. In cells and extracts the contact can be indirect. These calls come from enrichment with a bait or labelling near it, and not all partners need be listed.
Target: Morgue:3xFLAG (Drosophila) (UniProt Q9Y165)
Assay: affinity purification with mass spectrometry; lysate of whole adult flies on M2 anti-FLAG resin, 2 h at 4°C, 150 mM NaCl, 1% Triton X-100; eluate on SDS gel (silver or Coomassie stain); bands cut out, trypsin, MALDI-TOF/TOF

Amino acid sequences for entries named in this document (tags omitted). A change or cut given only in a name is not applied to a line headed by its entry.
UniProt Q9Y165: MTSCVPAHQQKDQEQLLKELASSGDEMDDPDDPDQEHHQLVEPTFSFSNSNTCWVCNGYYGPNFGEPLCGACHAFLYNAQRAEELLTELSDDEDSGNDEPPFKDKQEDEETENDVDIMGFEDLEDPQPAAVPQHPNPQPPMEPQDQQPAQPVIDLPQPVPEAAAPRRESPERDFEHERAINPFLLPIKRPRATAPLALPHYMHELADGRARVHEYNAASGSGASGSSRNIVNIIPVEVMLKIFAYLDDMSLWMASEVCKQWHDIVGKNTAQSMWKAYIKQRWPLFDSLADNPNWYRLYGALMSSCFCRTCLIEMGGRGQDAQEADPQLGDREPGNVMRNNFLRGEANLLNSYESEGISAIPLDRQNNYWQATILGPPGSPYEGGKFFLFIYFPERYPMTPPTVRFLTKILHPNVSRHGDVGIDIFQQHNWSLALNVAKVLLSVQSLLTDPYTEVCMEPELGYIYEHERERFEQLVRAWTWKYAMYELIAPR
UniProt O77430: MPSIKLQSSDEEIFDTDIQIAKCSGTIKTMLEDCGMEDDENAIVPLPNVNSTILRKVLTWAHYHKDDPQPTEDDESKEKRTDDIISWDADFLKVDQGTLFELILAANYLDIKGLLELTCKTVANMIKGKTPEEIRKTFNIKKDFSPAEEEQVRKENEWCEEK

- binding: binds
Substance: SkpA (from UniProt O77430 1-162)

Source: publication PMC3787007
